Data as given in PubChem BioAssay AID1259308 (NCATS, 2017).
Screen: 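Candidate targets for better recombinant protein yield in mammalian cells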 (primary screen). System: human HEK293 embryonic kidney cells stably expressing firefly luciferase (HEK-CMV-Luc2-Hygro). Reagent: single siRNA against human genes, 0.8 pmol siRNA per well. Duration: 72 h. Measured: 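Reporter luminescence and viable-cell signal on separate replicate plates, given as percent of non-targeting control and median/MAD z-scores, plus per-cell luciferase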. Scale: total luciferase, z-score and total luciferase, % of control: higher = more reporter protein produced. Active means: 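An siRNA counts as active if its total luciferase robust z-score exceeds 3; genes with two or more such siRNAs out of three were retested with fresh siRNAs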. Calls: active = raised luciferase; inactive = no rise.
Here is a random part of about 59,000 reagents. Of all reagents, about 1,510 (2.6%) got an active call. 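Calls use total luciferase alone and ignore viability, so some active siRNAs may act by altering cell number.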 Unmarked entries are inactive. Reagents against one gene are numbered here. Not all columns of the deposit are shown. Reagent sequences are not shown.

| target gene | reagent | total luciferase, z-score | total luciferase, % of control |
| --- | --- | --- | --- |
| USH1C | 1 | 0.311 | 88.1 |
| USH1C | 2 | 1.5 | 112 |
| USH1C | 3 | 1.15 | 105 |
| ZNF98 | 1 | 0.0747 | 83.4 |
| ZNF98 | 2 | -1.17 | 58.6 |
| ZNF98 | 3 | 0.308 | 88 |
| TPTE2 | 1 | 0.185 | 85.6 |
| TPTE2 | 2 | -1.37 | 54.6 |
| TPTE2 | 3 | -0.378 | 74.4 |
| HLA-DRB7 | 1 | 1.22 | 106 |
| HLA-DRB7 | 2 | 0.868 | 99.2 |
| HLA-DRB7 | 3 | 0.0215 | 82.3 |
| ALOXE3 | 1 | -0.438 | 73.2 |
| ALOXE3 | 2 | 2 | 122 |
| ALOXE3 | 3 | -0.527 | 71.4 |
| UBE2Q2 | 1 | -0.861 | 64.8 |
| UBE2Q2 | 2 | 1.06 | 103 |
| UBE2Q2 | 3 | -0.915 | 63.7 |
| FCHSD1 | 1 | 0.49 | 91.6 |
| FCHSD1 | 2 | 0.752 | 96.8 |
| FCHSD1 | 3 | -0.364 | 74.6 |
| DKC1 | 1 | 0.706 | 95.9 |
| DKC1 | 2 | -0.871 | 64.6 |
| DKC1 | 3 | -0.509 | 71.8 |
| STX8 | 1 | -0.276 | 76.4 |
| STX8 | 2 | 0.961 | 101 |
| STX8 | 3 | 3.6 (active) | 154 |
| CERKL | 1 | 1.29 | 108 |
| CERKL | 2 | -0.12 | 79.5 |
| CERKL | 3 | 1.16 | 105 |
| NDUFS4 | 1 | -0.76 | 66.8 |
| NDUFS4 | 2 | -0.937 | 63.3 |
| NDUFS4 | 3 | -0.0522 | 80.8 |
| AMTN | 1 | -0.765 | 66.7 |
| AMTN | 2 | 0.16 | 85.1 |
| AMTN | 3 | 2.1 | 124 |
| P2RX4 | 1 | 3.24 (active) | 146 |
| P2RX4 | 2 | 0.591 | 93.6 |
| P2RX4 | 3 | -0.348 | 75 |
| TERF2 | 1 | 0.928 | 100 |
| TERF2 | 2 | 0.233 | 86.5 |
| TERF2 | 3 | 0.153 | 84.9 |
| KLHDC2 | 1 | -0.935 | 63.3 |
| KLHDC2 | 2 | 0.134 | 84.5 |
| KLHDC2 | 3 | 1.25 | 107 |
| PROCR | 1 | 1.28 | 107 |
| PROCR | 2 | -2.66 | 28.9 |
| PROCR | 3 | -0.515 | 71.6 |
| OR4K1 | 1 | -0.646 | 69 |
| OR4K1 | 2 | 0.713 | 96.1 |
| OR4K1 | 3 | -1.68 | 48.5 |
| EPC2 | 1 | 0.00167 | 81.9 |
| EPC2 | 2 | 0.444 | 90.7 |
| EPC2 | 3 | 0.325 | 88.3 |
| GIMAP6 | 1 | 1.1 | 104 |
| GIMAP6 | 2 | 0.0236 | 82.4 |
| GIMAP6 | 3 | -1.92 | 43.8 |
